# Results published in patent US10202469B2 (Glytech, Inc., priority 2012, dated 2019).
# Strings that start with PEPTIDE1 are HELM notation: dots part the residues, brackets hold end groups and non-standard residues.
# Test: general procedure: Fmoc solid-phase peptide synthesis; Rink-Amide-PEGA resin; HCTU
# Settings: for conjugation yield: conjugation step
Substance,conjugation yield [%],"isolated mass (whole synthesis, scale 10 μmol) [mg]"
Arg-Trp-Gly-Leu-Leu-Leu-Ala-Leu-Leu-(sugar chain added-linker: 4-thiobenzoic acid-Asn(asialo)-Gly),17.5,–
"PEPTIDE1{R.W.G.L.L.L.A.L.L.[HMBA].[Cys_open(CH2CO)].[am]}|CHEM1{[asialo-NH]}$PEPTIDE1,CHEM1,11:R3-1:R1$$$V2.0",–,5.0
PEPTIDE1{R.W.G.L.L.L.A.L.L.[SCH2CH2SCH2CO].[asialo-NH]}$$$$V2.0,10.5,–
